Laboratory results: PubChem BioAssay AID1508588 (Peter MacCallum Cancer Centre, 2020)
The deposit covers about 18,000 reagents; shown is a random part of them. 790 of them (4.4%) count as active. 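Calls rest on a combination of fold-change classes in drug and vehicle arms, not all shown here.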

Aim: 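Genome-wide search for knock-downs that heighten vemurafenib action in melanoma cells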 (primary screen)
System: human WM266.4 melanoma cells (BRAF V600 mutant)
Reagents: siRNA pool against human genes, 40 nM
Timing: 96 h from transfection to read-out
Conditions: vemurafenib 300 nM (about IC25), added 48 h after transfection, for 48 h; comparison arm got DMSO vehicle only
Measurement: 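Cell gain (DAPI nuclei at end minus before drug, mean of two replicates) and medium lactate by absorbance per cell, both as ratio to non-targeting siRNA, also grouped into fold-change classes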
Reading the numbers: cell gain with vemurafenib: higher = more cell gain than with non-targeting siRNA; lactate per cell with vemurafenib: higher = more lactate made per cell
Call rule: 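a knock-down counts as enhancing when its fold-change classes with vehicle and with vemurafenib, taken together, show a stronger drug effect on cell gain or lactate per cell; exact class pairs not stated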
Calls: active = enhances vemurafenib effect; inactive = no enhancement seen

| Target gene | cell gain with vemurafenib | lactate per cell with vemurafenib | call |
| --- | --- | --- | --- |
| SKIC8 | 0.1 | 1.46 | inactive |
| TPST2 | 0.18 | 1.12 | inactive |
| CYB5R2 | 1.09 | 0.61 | inactive |
| PRPSAP1 | -0.04 | 1 | inactive |
| DTX3L | 0.91 | 0.61 | inactive |
| FZR1 | 0.53 | 0.85 | inactive |
| CD36 | 0.39 | 0.82 | inactive |
| ZC3H13 | 0.77 | 1.5 | inactive |
| AGTR1 | 1.41 | 0.84 | inactive |
| ZNF620 | 0.63 | 0.65 | inactive |
| MMACHC | 0.12 | 0.92 | inactive |
| ST6GALNAC1 | 0.61 | 0.62 | inactive |
| CD8B | 0.53 | 1.07 | inactive |
| RMDN2 | 0.6 | 1.51 | inactive |
| DHCR24 | -0.07 | 1.09 | inactive |
| PLK2 | 0.66 | 0.95 | inactive |
| BRI3BP | 1.23 | 0.41 | inactive |
| CYP51A1 | 0.88 | 0.78 | inactive |
| YWHAQ | 0.48 | 0.42 | inactive |
| IGSF1 | 0.98 | 0.55 | inactive |
| CHPT1 | 0.23 | 1.04 | inactive |
| FGF2 | 0.67 | 0.58 | inactive |
| HAO1 | 0.64 | 0.61 | inactive |
| DCHS1 | 0.11 | 2.33 | inactive |
| KRT74 | 0.84 | 0.72 | inactive |
| IRF1 | 1.11 | 0.67 | inactive |
| NFKBIB | 0.45 | 2.07 | inactive |
| IFT70A | 0.3 | 0.59 | inactive |
| CAPSL | 0.49 | 0.97 | inactive |
| FOXI2 | 0.36 | 1.27 | inactive |
| OLFML3 | 0.46 | 1.48 | inactive |
| VRK1 | 0.86 | 0.68 | inactive |
| P2RX5 | 0.96 | 1.33 | inactive |
| ODAPH | 0.88 | 1.02 | inactive |
| LINC00477 | 0.13 | 0.2 | inactive |
| XDH | 0.94 | 0.96 | inactive |
| SIPA1 | 0.77 | 1.1 | inactive |

Entries listed so far whose gene name begins with O or o:
| Target gene | cell gain with vemurafenib | lactate per cell with vemurafenib | call |
| --- | --- | --- | --- |
| OLFML3 | 0.46 | 1.48 | inactive |
| ODAPH | 0.88 | 1.02 | inactive |

The list goes on.
| Target gene | cell gain with vemurafenib | lactate per cell with vemurafenib | call |
| --- | --- | --- | --- |
| ZNF431 | 0.45 | 1.06 | inactive |
| SSU72 | 0.67 | 1.45 | inactive |
| DPP9 | 0 | 1.05 | inactive |
| ADORA2A | 0.77 | 1.19 | inactive |
| ZMAT5 | 0.38 | 1.06 | inactive |
| RALBP1 | 0.3 | 0.74 | inactive |
| MRO | 0.55 | 1 | inactive |
| ERI3 | 0.86 | 0.94 | inactive |
| APAF1 | 0.13 | 0.5 | inactive |
| TMEM26 | 0.89 | 0.44 | inactive |
| TTC9C | 0.48 | 1.4 | inactive |
| GLIPR2 | 0.48 | 0.86 | inactive |
| ADAMTS17 | 0.26 | 1.25 | inactive |
| LRP1B | 0.35 | 0.9 | inactive |
| MAP1LC3B | 0.2 | 1.35 | inactive |
| PSTK | 0.56 | 0.67 | inactive |
| SERINC5 | 0.46 | 0.41 | active |
| GSTCD | 0.52 | 1.1 | inactive |
| SUCLA2 | 0.62 | 1.52 | inactive |
| GZMM | 0.64 | 1.52 | inactive |
| PGF | 0.59 | 1.4 | inactive |
| TAAR1 | 0.74 | 0.82 | inactive |
| CAMLG | 0.94 | 0.56 | inactive |
| OR8A1 | 0.83 | 0.62 | inactive |
| SNTB2 | 0.41 | 0.74 | inactive |
| CYB5R5 | 0.45 | 1.17 | inactive |
| CFI | 0.26 | 2.16 | inactive |
| SNCA | 0.51 | 0.72 | inactive |
| FGFBP3 | 0.4 | 1.8 | inactive |
| TMOD2 | 0.11 | 0.75 | inactive |
| SPCS2 | 0.33 | 2.24 | inactive |
| RTN4R | 0.84 | 1.66 | inactive |
| S100A14 | 0.45 | 0.96 | inactive |
| PTPN11 | 0.76 | 0.92 | inactive |
| CCDC97 | 0.94 | 1.21 | inactive |
| GLG1 | 1.08 | 0.46 | inactive |
| RUNX1T1 | 0.4 | 2.44 | inactive |
| GABRA4 | 0.47 | 1.71 | inactive |
| WWOX | 0.63 | 1.22 | inactive |
| SMARCD3 | 0.79 | 1.43 | inactive |
| FITM2 | 0.95 | 0.44 | inactive |
| CNBD1 | 0.66 | 0.9 | inactive |
| OR52B6 | 0.2 | 1.48 | inactive |
| HSD3B1 | 0.87 | 0.64 | inactive |
| HPS6 | 0.78 | 0.97 | inactive |
| IL32 | 1.18 | 0.8 | inactive |
| STYK1 | 0.28 | 0.72 | inactive |
| ALDH3B1 | 0.37 | 0.43 | inactive |
| PLP1 | 0.89 | 0.56 | inactive |
| TENT2 | 0.92 | 0.48 | inactive |
| CSTF2T | 0.28 | 1.96 | inactive |
| KRTAP21-2 | 0.44 | 0.98 | inactive |
| NDN | 0.89 | 0.86 | inactive |
| STC1 | 0.78 | 0.59 | inactive |
| SLC35A1 | 0.14 | 1.14 | inactive |
| C1orf94 | 0.67 | 0.78 | inactive |
| RFESD | 0.27 | 1.4 | inactive |
| CREG1 | 0.35 | 1.25 | inactive |
| FRMPD2 | 0.05 | -0.14 | active |
| IDI2 | 0.81 | 0.96 | inactive |
| C2orf42 | 0.77 | 1.26 | inactive |
| ZMYND15 | 0.36 | 1.19 | inactive |
| CPSF2 | 0.61 | 2.06 | inactive |
| SECISBP2L | 0.89 | 0.63 | inactive |
| BACH1 | 0.22 | 2.77 | inactive |
| UIMC1 | 0.56 | 1.13 | inactive |
| PHB1 | 0.43 | 2 | inactive |
| MTUS1 | 0.21 | 1.29 | inactive |
| FILIP1 | 0.44 | 1.16 | inactive |
| SPTSSA | 0.33 | 0.66 | inactive |
